Assay results published in patent US7642244B2 (Hoffmann-La Roche Inc., priority 2005, dated 2010).

Assay: general procedure: Fmoc solid-phase peptide synthesis; Fmoc-Linker-BHA resin; HBTU/HOBt, DIEA
Conditions: for conjugation yield / final HPLC purity: conjugation step; for final HPLC purity: 280 nm; for isolated mass / isolated yield: whole synthesis; for isolated yield: scale of the general procedure 0.25 mmol

Substance | conjugation yield [%] | final HPLC purity [%] | isolated mass [mg] | isolated yield [%] | conjugation yield (overall) [%]
(PEG30,000 SPA)IK-Pqa-RHYLNWVTRQ(N-methyl)RY | 69.8 | >97 |  |  | 
(PEG30,000)-SSA-INIe-Pqa-RHYLNWVTRQ(N-methyl)RY | 94.1 | >90 |  |  | 
(PEG30,000)-beta-SBA-INIe-Pqa-RHYLNWVTRQ(N-methyl)RY | 93.4 | >90 |  |  | 
(PEG40,000 BTC)-IK-Pqa-RHYLNWVTRQ(N-methylRY | 60.4 | >90 |  |  | 
Ac-IK-Pqa-RHYLNWVTRQ(N-methyl)R (2–6 di F)Y |  |  | 24 | 4 | 
Ac-IK-Pqa-RHYLNWVTRQ(N-methyl)RY |  |  | 68 | 12 | 
Ac-Ile-Lys(PEG30,000 SPA)-Pqa-RHYLNWVTRQ(Ng-methyl)RY | 83.3 | >95 |  |  | 
Ac-Ile-Lys(PEG30,000 SSA)-Pqa-RHYLNWVTRQ(N-methyl)RV | 81.4 | >97 |  |  | 
Adamtyl-IK-Pqa-RHYLNWVTRQ(N.methyl)RY |  |  | 29 | 5 | 
Benzoyl-IK-Pqa-RHYLNWVTRQ(N-methyl)RY |  |  | 23 | 4 | 
Cyclohexyl-IK-Pqa-RHYLNWVTRQ(N-methyl)RY |  |  | 15 | 3 | 
IK(PEG30,000 SSA)-Pqa-RHYLNWVTRQ(N-methyl)RY | 93.8 | >95 |  |  | 89.5
IK-Pqa-RHYLNLVTRQ(N-methyl)R (2–6 di F)Y |  |  | 49.3 | 9 | 
IK-Pqa-RHYLNLVTRQ(N-methyl)R (2–6 di Me)Y |  |  | 13.5 | 3 | 
IK-Pqa-RHYLNLVTRQ(N-methyl)R (3-I)Y |  |  | 41 | 7 | 
IK-Pqa-RHYLNLVTRQ(N-methyl)R (3–5 di F)Y |  |  | 28 | 5 | 
IK-Pqa-RHYLNLVTRQ(N-methyl)R (m-)Y |  |  | 38.5 | 7 | 
IK-Pqa-RHYLNLVTRQ(N-methyl)R(1)NaI |  |  | 45 | 8 | 
IK-Pqa-RHYLNLVTRQ(N-methyl)R(2)NaI |  |  | 43 | 8 | 

Substance | conjugation yield [%] | final HPLC purity [%] | isolated mass [mg] | isolated yield [%] | conjugation yield (overall) [%]
IK-Pqa-RHYLNLVTRQ(N-methyl)R(2,3.4,5,6-Penta-F)Phe |  |  | 89 | 16 | 
IK-Pqa-RHYLNLVTRQ(N-methyl)R(3-F)Phe |  |  | 84 | 16 | 
IK-Pqa-RHYLNLVTRQ(N-methyl)R(3.4-diCl)Phe |  |  | 46 | 8 | 
IK-Pqa-RHYLNLVTRQ(N-methyl)R(4-CF3)Phe |  |  | 81 | 15 | 
IK-Pqa-RHYLNLVTRQ(N-methyl)R(4-CH2OH)Phe |  |  | 24 | 4 | 
IK-Pqa-RHYLNLVTRQ(N-methyl)R(4-F)Phe |  |  | 35 | 7 | 
IK-Pqa-RHYLNLVTRQ(N-methyl)R(4-NH2)Phe |  |  | 51.4 | 10 | 
IK-Pqa-RHYLNLVTRQ(N-methyl)RCH |  |  | 49 | 9 | 
IK-Pqa-RHYLNLVTRQ(N-methyl)RF |  |  | 85.3 | 16 | 
IK-Pqa-RHYLNLVTRQ(N-methyl)RF(4-O-CH3) |  |  | 72 | 13 | 
IK-Pqa-RHYLNLVTRQ(N-methyl)RW |  |  | 57 | 10 | 
IK-Pqa-RHYLNLVTRQ(N-methyl)RY |  |  | 32 | 6 | 
IK-Pqa-RHYLNLVTRQR-C-α-Me-Tyr |  |  | 35.1 | 7 | 
IK-Pqa-RHYLNLVTRQRY |  |  | 48 | 9 | 
IK-Pqa-RHYLNWVTRQ(N-methyl)RY |  |  | 130 | 23 | 
INIe-Pqa-RHYLNWVTRQ(N-methyl)RY |  |  | 84 | 15 | 
Pentyl-IK-Pqa-RHYLNWVTRQ(N-methyl)RY |  |  | 67 | 12 | 
Trimetyl acetyl-IK-Pqa-RHYLNWVTRQ(N-methyl)RY |  |  | 6 | 1 | 
